Measurements reported in PubChem BioAssay AID1224830 (NIAID, 2016)
The whole screen tested about 18,000 reagents; below is an unselected part. About 2,900 of them (16%) count as active. 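Calls are made per well; low scores hint the gene aids the LPS response, high scores that it dampens it.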 A number with no mark means an inactive call. The numbers tell different reagents against one gene apart. Repeated entries: four replicate wells of each siRNA pool.

Assay: 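Genes whose knock-down alters the TNF-alpha reporter response to LPS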 (primary screen)
System: human THP-1 monocytic leukaemia cells, TNF dual-luciferase reporter clone, PMA-differentiated to macrophage-like cells
Reagent: siRNA pool against human genes, 50 nM
Time to read-out: LPS for 4 h, given about 3 days after siRNA transfection
Treatment: bacterial LPS (TLR4 ligand), 10 ng/ml
Detection: 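Ratio of firefly to renilla light, scaled to the plate median and expressed as a robust z-score per replicate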
Reading the numbers: TNF reporter robust z-score: higher = stronger TNF reporter response to LPS
Hit rule: 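a well is active when its z-score exceeds 2.8 or falls below -1.5; control wells carry no call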

| TNF reporter robust z-score | target gene | reagent no. |
| --- | --- | --- |
| 0.09 | TMPRSS6 (GeneID 164656) | 1 |
| -0.96 | TMPRSS6 (GeneID 164656) | 1 |
| -0.59 | TMPRSS6 (GeneID 164656) | 1 |
| -0.3 | TMPRSS6 (GeneID 164656) | 1 |
| 0.08 | HMMR (GeneID 3161) | 1 |
| 0.96 | HMMR (GeneID 3161) | 1 |
| 0.37 | HMMR (GeneID 3161) | 1 |
| 0.68 | HMMR (GeneID 3161) | 1 |
| -0.53 | MAN1A1 (GeneID 4121) | 1 |
| -0.38 | MAN1A1 (GeneID 4121) | 1 |
| -0.84 | MAN1A1 (GeneID 4121) | 1 |
| -0.04 | MAN1A1 (GeneID 4121) | 1 |
| 0.25 | DUSP4 (GeneID 1846) | 1 |
| 1.62 | DUSP4 (GeneID 1846) | 1 |
| 0.14 | DUSP4 (GeneID 1846) | 1 |
| 1.34 | DUSP4 (GeneID 1846) | 1 |
| -0.45 | PMPCB (GeneID 9512) | 1 |
| -1.27 | PMPCB (GeneID 9512) | 1 |
| -1.02 | PMPCB (GeneID 9512) | 1 |
| 2.43 | PMPCB (GeneID 9512) | 1 |
| -1.72 (active) | MCRIP2 (GeneID 84331) | 1 |
| -1.54 (active) | MCRIP2 (GeneID 84331) | 1 |
| -1.7 (active) | MCRIP2 (GeneID 84331) | 1 |
| -1.5 | MCRIP2 (GeneID 84331) | 1 |
| -0.06 | TXLNGY (GeneID 246126) | 1 |
| -0.14 | TXLNGY (GeneID 246126) | 1 |
| 0.09 | TXLNGY (GeneID 246126) | 1 |
| -0.56 | TXLNGY (GeneID 246126) | 1 |
| -0.89 | TXLNGY (GeneID 246126) | 2 |
| -1.01 | TXLNGY (GeneID 246126) | 2 |
| -0.94 | TXLNGY (GeneID 246126) | 2 |
| -0.88 | TXLNGY (GeneID 246126) | 2 |
| -0.96 | P2RY14 (GeneID 9934) | 1 |
| -0.54 | P2RY14 (GeneID 9934) | 1 |
| -1.03 | P2RY14 (GeneID 9934) | 1 |
| -0.77 | P2RY14 (GeneID 9934) | 1 |
| -1.03 | PACRGL (GeneID 133015) | 1 |
| -1.45 | PACRGL (GeneID 133015) | 1 |
| -0.94 | PACRGL (GeneID 133015) | 1 |
| -0.15 | PACRGL (GeneID 133015) | 1 |
| 0.72 | COXFA4L3 (GeneID 84419) | 1 |
| 0.64 | COXFA4L3 (GeneID 84419) | 1 |
| 0.06 | COXFA4L3 (GeneID 84419) | 1 |
| 0.96 | COXFA4L3 (GeneID 84419) | 1 |
| -0.16 | ZNF3 (GeneID 7551) | 1 |
| 0.17 | ZNF3 (GeneID 7551) | 1 |
| -1.34 | ZNF3 (GeneID 7551) | 1 |
| -1.57 (active) | ZNF3 (GeneID 7551) | 1 |
| -0.66 | NR4A3 (GeneID 8013) | 1 |
| 0.31 | NR4A3 (GeneID 8013) | 1 |
| -0.58 | NR4A3 (GeneID 8013) | 1 |
| -0.63 | NR4A3 (GeneID 8013) | 1 |
| 0.57 | CTIF (GeneID 9811) | 1 |
| -0.91 | CTIF (GeneID 9811) | 1 |
| -0.92 | CTIF (GeneID 9811) | 1 |
| -1.02 | CTIF (GeneID 9811) | 1 |
| 0.53 | EMSY (GeneID 56946) | 1 |
| -0.2 | EMSY (GeneID 56946) | 1 |
| 0 | EMSY (GeneID 56946) | 1 |
| 1.05 | EMSY (GeneID 56946) | 1 |
| 1.09 | CAT (GeneID 847) | 1 |
| 1.7 | CAT (GeneID 847) | 1 |
| 1.78 | CAT (GeneID 847) | 1 |
| 3.61 (active) | CAT (GeneID 847) | 1 |
| 0.13 | IL32 (GeneID 9235) | 1 |
| 0.49 | IL32 (GeneID 9235) | 1 |
| 0.16 | IL32 (GeneID 9235) | 1 |
| 0.26 | IL32 (GeneID 9235) | 1 |
| -0.21 | CPTP (GeneID 80772) | 1 |
| -0.3 | CPTP (GeneID 80772) | 1 |
| -0.4 | CPTP (GeneID 80772) | 1 |
| -0.06 | CPTP (GeneID 80772) | 1 |

16 consecutive entries already listed:
| TNF reporter robust z-score | target gene | reagent no. |
| --- | --- | --- |
| -1.5 | MCRIP2 (GeneID 84331) | 1 |
| -0.06 | TXLNGY (GeneID 246126) | 1 |
| -0.14 | TXLNGY (GeneID 246126) | 1 |
| 0.09 | TXLNGY (GeneID 246126) | 1 |
| -0.56 | TXLNGY (GeneID 246126) | 1 |
| -0.89 | TXLNGY (GeneID 246126) | 2 |
| -1.01 | TXLNGY (GeneID 246126) | 2 |
| -0.94 | TXLNGY (GeneID 246126) | 2 |
| -0.88 | TXLNGY (GeneID 246126) | 2 |
| -0.96 | P2RY14 (GeneID 9934) | 1 |
| -0.54 | P2RY14 (GeneID 9934) | 1 |
| -1.03 | P2RY14 (GeneID 9934) | 1 |
| -0.77 | P2RY14 (GeneID 9934) | 1 |
| -1.03 | PACRGL (GeneID 133015) | 1 |
| -1.45 | PACRGL (GeneID 133015) | 1 |
| -0.94 | PACRGL (GeneID 133015) | 1 |

Further records:
| TNF reporter robust z-score | target gene | reagent no. |
| --- | --- | --- |
| 1.07 | PDE7B (GeneID 27115) | 1 |
| 0.68 | PDE7B (GeneID 27115) | 1 |
| -0.33 | PDE7B (GeneID 27115) | 1 |
| -0.13 | PDE7B (GeneID 27115) | 1 |
| -0.16 | CLCN5 (GeneID 1184) | 1 |
| -0.39 | CLCN5 (GeneID 1184) | 1 |
| 0.26 | CLCN5 (GeneID 1184) | 1 |
| 0.01 | CLCN5 (GeneID 1184) | 1 |
| -0.54 | IFT140 (GeneID 9742) | 1 |
| -0.52 | IFT140 (GeneID 9742) | 1 |
| -0.92 | IFT140 (GeneID 9742) | 1 |
| 0.6 | IFT140 (GeneID 9742) | 1 |
| -0.65 | SYNJ1 (GeneID 8867) | 1 |
| 0.81 | SYNJ1 (GeneID 8867) | 1 |
| 0.27 | SYNJ1 (GeneID 8867) | 1 |
| -0.43 | SYNJ1 (GeneID 8867) | 1 |
| -1.24 | TRIM17 (GeneID 51127) | 1 |
| 1.34 | TRIM17 (GeneID 51127) | 1 |
| -0.56 | TRIM17 (GeneID 51127) | 1 |
| 3.18 (active) | TRIM17 (GeneID 51127) | 1 |
| -0.73 | NPB (GeneID 256933) | 1 |
| 0.09 | NPB (GeneID 256933) | 1 |
| -0.34 | NPB (GeneID 256933) | 1 |
| 0.15 | NPB (GeneID 256933) | 1 |
| -1.14 | METTL9 (GeneID 51108) | 1 |
| -0.09 | METTL9 (GeneID 51108) | 1 |
| -0.5 | METTL9 (GeneID 51108) | 1 |
| -0.64 | METTL9 (GeneID 51108) | 1 |
| -0.23 | FBXL15 (GeneID 79176) | 1 |
| -1.09 | FBXL15 (GeneID 79176) | 1 |
| -0.27 | FBXL15 (GeneID 79176) | 1 |
| -1.1 | FBXL15 (GeneID 79176) | 1 |
| 2.16 | C20orf204 (GeneID 284739) | 1 |
| -0.56 | C20orf204 (GeneID 284739) | 1 |
| -1.38 | C20orf204 (GeneID 284739) | 1 |
| -0.92 | C20orf204 (GeneID 284739) | 1 |
| 2.71 | RBMY1A1 (GeneID 5940) | 1 |
| 2.61 | RBMY1A1 (GeneID 5940) | 1 |
| 1.56 | RBMY1A1 (GeneID 5940) | 1 |
| 0.55 | RBMY1A1 (GeneID 5940) | 1 |
